Test results: the supplement of paper PMC10849652
Some of the results follow.

The chains behind the UniProt entries cited, without tags or fusion partners. Where a name states a change or a piece, a line headed by the entry shows the natural chain unless it says otherwise.
UniProt Q9H2D1: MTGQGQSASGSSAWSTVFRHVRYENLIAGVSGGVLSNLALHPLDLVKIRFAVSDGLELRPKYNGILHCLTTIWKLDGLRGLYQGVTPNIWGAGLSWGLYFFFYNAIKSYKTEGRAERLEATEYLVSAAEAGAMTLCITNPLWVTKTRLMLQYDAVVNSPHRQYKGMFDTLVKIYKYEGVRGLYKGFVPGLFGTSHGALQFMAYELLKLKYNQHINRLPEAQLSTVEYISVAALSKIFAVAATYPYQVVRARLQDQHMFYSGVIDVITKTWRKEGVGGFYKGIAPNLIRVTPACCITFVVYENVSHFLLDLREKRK
UniProt Q9UP95: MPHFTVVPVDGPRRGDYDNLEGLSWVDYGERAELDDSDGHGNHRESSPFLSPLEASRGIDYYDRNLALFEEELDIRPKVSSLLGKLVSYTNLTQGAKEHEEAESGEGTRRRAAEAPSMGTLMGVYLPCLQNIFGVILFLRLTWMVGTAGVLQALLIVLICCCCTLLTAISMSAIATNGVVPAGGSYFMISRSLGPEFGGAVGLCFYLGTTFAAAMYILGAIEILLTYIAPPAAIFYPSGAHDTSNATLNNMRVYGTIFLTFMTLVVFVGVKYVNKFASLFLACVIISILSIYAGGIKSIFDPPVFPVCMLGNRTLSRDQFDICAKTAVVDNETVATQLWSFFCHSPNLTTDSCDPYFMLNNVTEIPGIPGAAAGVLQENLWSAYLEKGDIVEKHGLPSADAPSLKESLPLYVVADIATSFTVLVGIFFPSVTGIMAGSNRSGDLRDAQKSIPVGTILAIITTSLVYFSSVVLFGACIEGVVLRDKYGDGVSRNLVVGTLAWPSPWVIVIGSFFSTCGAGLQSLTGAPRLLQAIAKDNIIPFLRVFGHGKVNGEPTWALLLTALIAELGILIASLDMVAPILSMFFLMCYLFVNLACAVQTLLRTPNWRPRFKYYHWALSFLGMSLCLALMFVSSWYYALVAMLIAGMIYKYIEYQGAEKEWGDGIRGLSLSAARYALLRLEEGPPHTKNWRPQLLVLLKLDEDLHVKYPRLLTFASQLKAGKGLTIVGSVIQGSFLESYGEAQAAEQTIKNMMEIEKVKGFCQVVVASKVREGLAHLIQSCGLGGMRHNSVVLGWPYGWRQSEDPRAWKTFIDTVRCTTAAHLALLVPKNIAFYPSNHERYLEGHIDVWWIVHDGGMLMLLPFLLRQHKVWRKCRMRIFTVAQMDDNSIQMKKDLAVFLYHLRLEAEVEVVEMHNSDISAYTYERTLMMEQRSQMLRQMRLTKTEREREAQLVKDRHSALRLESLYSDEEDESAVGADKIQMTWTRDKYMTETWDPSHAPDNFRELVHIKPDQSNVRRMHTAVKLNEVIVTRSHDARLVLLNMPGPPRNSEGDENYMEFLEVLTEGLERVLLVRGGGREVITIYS
UniProt P11166: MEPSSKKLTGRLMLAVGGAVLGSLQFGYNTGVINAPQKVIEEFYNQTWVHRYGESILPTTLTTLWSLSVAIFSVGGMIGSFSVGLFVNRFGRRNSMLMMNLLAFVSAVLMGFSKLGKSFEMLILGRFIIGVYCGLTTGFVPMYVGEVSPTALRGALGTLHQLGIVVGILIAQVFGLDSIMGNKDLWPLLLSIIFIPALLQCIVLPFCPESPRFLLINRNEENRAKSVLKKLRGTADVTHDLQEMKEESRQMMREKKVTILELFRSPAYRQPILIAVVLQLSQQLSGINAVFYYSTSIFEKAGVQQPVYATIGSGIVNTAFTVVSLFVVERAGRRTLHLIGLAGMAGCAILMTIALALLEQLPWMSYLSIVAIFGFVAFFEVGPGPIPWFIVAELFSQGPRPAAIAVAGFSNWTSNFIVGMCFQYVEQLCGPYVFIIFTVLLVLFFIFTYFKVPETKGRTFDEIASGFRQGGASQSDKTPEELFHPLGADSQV
UniProt Q9BWU0: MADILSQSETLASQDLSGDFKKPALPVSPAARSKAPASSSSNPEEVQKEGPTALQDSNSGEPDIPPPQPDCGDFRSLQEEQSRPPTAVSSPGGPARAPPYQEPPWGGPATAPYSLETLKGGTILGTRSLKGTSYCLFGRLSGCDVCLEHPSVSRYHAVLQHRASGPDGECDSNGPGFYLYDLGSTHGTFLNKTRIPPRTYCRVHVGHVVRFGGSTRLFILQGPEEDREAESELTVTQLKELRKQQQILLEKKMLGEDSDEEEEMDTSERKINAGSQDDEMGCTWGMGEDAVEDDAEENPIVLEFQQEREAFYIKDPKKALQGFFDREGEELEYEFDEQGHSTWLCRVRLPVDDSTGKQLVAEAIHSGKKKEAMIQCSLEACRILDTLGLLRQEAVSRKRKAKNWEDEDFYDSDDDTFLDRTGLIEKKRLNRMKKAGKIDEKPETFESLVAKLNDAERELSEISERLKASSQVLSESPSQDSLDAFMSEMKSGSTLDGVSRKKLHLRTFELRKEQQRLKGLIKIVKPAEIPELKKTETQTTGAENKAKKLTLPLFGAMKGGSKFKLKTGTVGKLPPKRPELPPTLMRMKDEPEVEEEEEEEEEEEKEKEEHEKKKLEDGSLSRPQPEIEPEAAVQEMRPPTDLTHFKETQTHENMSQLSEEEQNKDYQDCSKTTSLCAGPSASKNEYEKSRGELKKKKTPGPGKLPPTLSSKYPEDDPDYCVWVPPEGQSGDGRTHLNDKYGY
UniProt Q9HBR0: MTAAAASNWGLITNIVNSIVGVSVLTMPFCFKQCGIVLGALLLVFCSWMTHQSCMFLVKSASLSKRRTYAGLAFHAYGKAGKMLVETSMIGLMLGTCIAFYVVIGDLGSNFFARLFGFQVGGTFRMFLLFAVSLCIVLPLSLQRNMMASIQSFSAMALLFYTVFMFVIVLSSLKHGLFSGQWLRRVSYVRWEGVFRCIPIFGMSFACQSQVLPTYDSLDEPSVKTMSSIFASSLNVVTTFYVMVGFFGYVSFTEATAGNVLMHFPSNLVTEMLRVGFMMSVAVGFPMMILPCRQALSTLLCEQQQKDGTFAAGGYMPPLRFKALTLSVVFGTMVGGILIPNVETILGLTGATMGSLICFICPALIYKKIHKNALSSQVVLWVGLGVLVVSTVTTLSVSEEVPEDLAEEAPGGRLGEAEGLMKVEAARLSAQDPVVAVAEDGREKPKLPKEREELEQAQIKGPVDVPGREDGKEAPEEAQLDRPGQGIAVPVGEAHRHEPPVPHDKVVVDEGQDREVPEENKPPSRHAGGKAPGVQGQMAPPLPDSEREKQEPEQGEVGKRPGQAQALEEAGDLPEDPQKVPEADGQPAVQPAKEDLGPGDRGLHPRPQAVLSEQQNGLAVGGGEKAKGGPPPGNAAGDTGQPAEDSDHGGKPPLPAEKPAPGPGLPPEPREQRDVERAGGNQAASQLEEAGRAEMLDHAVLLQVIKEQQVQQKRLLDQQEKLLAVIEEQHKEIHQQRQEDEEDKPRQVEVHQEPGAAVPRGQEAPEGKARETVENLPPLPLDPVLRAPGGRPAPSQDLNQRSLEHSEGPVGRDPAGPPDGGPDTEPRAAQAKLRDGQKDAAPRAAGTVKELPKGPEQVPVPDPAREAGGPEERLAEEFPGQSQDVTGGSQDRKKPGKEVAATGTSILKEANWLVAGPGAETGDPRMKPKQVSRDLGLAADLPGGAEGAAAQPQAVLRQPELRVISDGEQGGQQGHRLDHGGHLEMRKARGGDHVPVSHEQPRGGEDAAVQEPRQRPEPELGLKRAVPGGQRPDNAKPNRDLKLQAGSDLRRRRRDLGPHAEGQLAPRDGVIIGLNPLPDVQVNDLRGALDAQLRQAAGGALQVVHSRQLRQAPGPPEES
UniProt Q92504: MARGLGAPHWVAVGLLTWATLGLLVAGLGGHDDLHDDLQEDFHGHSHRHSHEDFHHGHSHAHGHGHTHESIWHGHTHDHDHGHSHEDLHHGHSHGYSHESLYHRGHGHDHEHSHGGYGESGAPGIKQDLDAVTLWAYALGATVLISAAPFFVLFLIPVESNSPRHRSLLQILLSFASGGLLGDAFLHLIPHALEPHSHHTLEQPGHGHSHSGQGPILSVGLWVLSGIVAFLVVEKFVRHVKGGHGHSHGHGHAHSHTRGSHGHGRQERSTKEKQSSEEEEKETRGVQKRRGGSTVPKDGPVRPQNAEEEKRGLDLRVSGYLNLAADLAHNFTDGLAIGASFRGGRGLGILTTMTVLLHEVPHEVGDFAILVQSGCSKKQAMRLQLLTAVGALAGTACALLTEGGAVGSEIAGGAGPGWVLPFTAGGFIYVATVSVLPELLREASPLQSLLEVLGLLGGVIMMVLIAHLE
UniProt Q5BKX6: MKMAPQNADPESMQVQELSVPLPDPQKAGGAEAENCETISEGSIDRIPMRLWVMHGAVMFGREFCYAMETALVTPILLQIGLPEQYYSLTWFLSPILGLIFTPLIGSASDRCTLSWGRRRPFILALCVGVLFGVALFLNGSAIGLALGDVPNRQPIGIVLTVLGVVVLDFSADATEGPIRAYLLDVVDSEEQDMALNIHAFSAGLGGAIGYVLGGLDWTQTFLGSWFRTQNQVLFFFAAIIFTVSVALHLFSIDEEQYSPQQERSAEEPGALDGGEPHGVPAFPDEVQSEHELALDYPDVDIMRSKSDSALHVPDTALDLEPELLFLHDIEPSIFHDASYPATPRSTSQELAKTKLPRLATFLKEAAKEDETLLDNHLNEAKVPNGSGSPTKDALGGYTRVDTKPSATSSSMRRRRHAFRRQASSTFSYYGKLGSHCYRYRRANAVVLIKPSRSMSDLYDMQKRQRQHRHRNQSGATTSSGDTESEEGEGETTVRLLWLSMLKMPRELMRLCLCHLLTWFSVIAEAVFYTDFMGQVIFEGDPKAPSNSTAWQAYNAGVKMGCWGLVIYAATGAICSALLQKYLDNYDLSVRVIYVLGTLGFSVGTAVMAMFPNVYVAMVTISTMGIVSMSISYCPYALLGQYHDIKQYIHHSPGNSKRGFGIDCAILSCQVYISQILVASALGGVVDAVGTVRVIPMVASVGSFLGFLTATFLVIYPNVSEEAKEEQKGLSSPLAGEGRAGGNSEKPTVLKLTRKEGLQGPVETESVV
UniProt P12236: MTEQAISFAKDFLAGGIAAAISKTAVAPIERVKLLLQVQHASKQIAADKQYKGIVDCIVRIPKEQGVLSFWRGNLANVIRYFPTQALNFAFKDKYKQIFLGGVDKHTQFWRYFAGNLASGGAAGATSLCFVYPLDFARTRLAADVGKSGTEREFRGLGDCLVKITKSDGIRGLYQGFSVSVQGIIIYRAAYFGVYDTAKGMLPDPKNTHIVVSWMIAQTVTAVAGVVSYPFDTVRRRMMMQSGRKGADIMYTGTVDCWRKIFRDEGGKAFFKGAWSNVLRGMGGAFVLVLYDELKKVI
UniProt L0R6Q1: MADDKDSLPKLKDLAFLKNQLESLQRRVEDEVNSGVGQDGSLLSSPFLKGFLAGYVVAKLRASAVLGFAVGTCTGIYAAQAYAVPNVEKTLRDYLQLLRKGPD
UniProt P43007: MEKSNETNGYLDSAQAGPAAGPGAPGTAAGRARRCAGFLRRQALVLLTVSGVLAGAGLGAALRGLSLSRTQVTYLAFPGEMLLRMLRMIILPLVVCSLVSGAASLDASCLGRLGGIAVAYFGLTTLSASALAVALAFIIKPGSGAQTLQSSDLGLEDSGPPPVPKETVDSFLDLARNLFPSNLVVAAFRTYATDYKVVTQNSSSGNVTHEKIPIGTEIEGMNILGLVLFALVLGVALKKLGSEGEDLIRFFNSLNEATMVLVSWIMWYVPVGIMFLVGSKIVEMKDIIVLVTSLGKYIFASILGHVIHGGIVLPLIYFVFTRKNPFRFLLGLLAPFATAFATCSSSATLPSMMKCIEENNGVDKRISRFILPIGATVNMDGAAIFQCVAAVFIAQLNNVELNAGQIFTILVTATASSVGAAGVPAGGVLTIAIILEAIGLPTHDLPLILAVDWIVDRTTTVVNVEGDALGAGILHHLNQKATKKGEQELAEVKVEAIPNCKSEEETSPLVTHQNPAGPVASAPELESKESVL
UniProt Q9UJS0: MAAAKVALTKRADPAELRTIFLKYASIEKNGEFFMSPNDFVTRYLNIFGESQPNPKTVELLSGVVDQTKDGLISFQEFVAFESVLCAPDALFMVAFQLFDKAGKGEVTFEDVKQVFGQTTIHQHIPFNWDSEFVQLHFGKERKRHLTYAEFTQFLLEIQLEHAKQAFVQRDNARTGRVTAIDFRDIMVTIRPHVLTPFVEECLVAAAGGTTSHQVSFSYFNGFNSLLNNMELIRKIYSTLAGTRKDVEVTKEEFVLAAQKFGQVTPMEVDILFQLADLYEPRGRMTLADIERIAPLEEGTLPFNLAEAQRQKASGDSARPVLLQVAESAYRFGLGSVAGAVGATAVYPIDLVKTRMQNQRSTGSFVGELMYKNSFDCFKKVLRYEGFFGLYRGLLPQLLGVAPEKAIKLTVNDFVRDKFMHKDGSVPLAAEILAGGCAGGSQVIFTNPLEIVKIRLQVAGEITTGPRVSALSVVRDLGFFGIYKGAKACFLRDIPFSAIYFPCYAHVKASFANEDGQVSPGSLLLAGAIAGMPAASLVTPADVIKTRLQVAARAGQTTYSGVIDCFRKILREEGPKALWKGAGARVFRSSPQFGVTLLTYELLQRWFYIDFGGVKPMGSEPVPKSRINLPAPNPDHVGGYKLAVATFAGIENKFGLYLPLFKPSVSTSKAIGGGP

Tests used:
Assay in all cases: log2 fold change, soluble protein after heating vs DMSO (PISA); higher = thermal stabilisation; K562 cells, 10 uM, 30 min; active = over 0.2 and 3.5 SD of the protein, either way, in both replicates (recomputed)
[1] = compound: CS(=O)(=O)c1ccc(-c2cnc(N)c(C(=O)Nc3ccccc3)n2)cc1
In short: (§1)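 Aliquots of K562 cells (2×10^6 cells/mL) treated with 10 μM compound for 30 min were heated for 3 min over 48°C-58°C. After pooling and extraction in PBS with 0.5% NP-40 at 4°C, soluble protein from a 21,000xg, 90 min spin was quantified by TMTpro 16plex LC-MS/MS with channel sums equalised. Thermal stability is expressed against control samples, from duplicates, as a log2 fold change.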

crizotinib = compound: C[C@@H](Oc1cc(-c2cnn(C3CCNCC3)c2)cnc1N)c1c(Cl)ccc(F)c1Cl [crizotinib]
In short: as §1

[2] = compound: C[C@@H]1COCCN1C2=NC(=NC(=C2)C3(CC3)S(=O)(=O)C)C4=C5C=CNC5=CC=C4
In short: as §1

[3] = compound: C[C@H](C1=CC=C(C=C1)C(=O)NC2=C3C=CNC3=NC=C2)N
In short: as §1

duvelisib = compound: C[C@H](Nc1ncnc2nc[nH]c12)c1cc2cccc(Cl)c2c(=O)n1-c1ccccc1 [duvelisib]
In short: as §1

gandotinib = compound: Cc1cc(Nc2cc(CN3CCOCC3)c3nc(C)c(Cc4ccc(Cl)cc4F)n3n2)n[nH]1 [gandotinib]
In short: as §1

tozasertib = compound: Cc1cc(Nc2cc(N3CCN(C)CC3)nc(Sc3ccc(NC(=O)C4CC4)cc3)n2)n[nH]1 [tozasertib]
In short: as §1

[4] = compound: Cc1cc(SCc2sc(-c3ccc(C(F)(F)F)cc3)nc2C)ccc1OCC(=O)O
In short: as §1

doramapimod = compound: Cc1ccc(-n2nc(C(C)(C)C)cc2NC(=O)Nc2ccc(OCCN3CCOCC3)c3ccccc23)cc1 [doramapimod]
In short: as §1

ispinesib = compound: Cc1ccc(C(=O)N(CCCN)[C@@H](c2nc3cc(Cl)ccc3c(=O)n2Cc2ccccc2)C(C)C)cc1 [ispinesib]
In short: as §1

bafetinib = compound: Cc1ccc(NC(=O)c2ccc(CN3CC[C@H](N(C)C)C3)c(C(F)(F)F)c2)cc1Nc1nccc(-c2cncnc2)n1 [bafetinib]
In short: as §1

[5] = compound: Cc1cccc(CC(=O)N2CCc3c2ccc(-c2cn(C)c4ncnc(N)c24)c3F)n1
In short: as §1

nilotinib = compound: Cc1cn(-c2cc(NC(=O)c3ccc(C)c(Nc4nccc(-c5cccnc5)n4)c3)cc(C(F)(F)F)c2)cn1 [nilotinib]
In short: as §1

[6] = compound: Cc1nc(Nc2n[nH]c3c2CN(C(=O)N[C@H](CN(C)C)c2ccccc2)C3(C)C)c2sccc2n1
In short: as §1

dasatinib = compound: Cc1nc(Nc2ncc(C(=O)Nc3c(C)cccc3Cl)s2)cc(N2CCN(CCO)CC2)n1 [dasatinib]
In short: as §1

[7] = compound: Cc1ncc(-c2ccnc(Nc3ccc(S(C)(=O)=O)cc3)n2)n1C(C)C
In short: as §1

[8] = compound: Cn1cc(-c2ccc3c(c2)CCN3C(=O)Cc2cccc(C(F)(F)F)c2)c2c(N)ncnc21
In short: as §1

[9] = compound: Cn1cc(-c2ccc3nnc(C(F)(F)c4ccc5ncccc5c4)n3n2)cn1
In short: as §1

tipifarnib = compound: Cn1cncc1[C@@](N)(c1ccc(Cl)cc1)c1ccc2c(c1)c(-c1cccc(Cl)c1)cc(=O)n2C [tipifarnib]
In short: as §1

mubritinib = compound: FC(F)(F)c1ccc(/C=C/c2nc(COc3ccc(CCCCn4ccnn4)cc3)co2)cc1 [mubritinib]
In short: as §1

Measured: log2 fold change

SLC12A6 isoform 2 (UniProt Q9UHW9)
inactive: [1] 0.08 | crizotinib -0.013 | [2] 0.042 | [3] -0.098 | duvelisib 0.056 | gandotinib -0.051 | tozasertib -0.025 | [4] -0.047 | doramapimod -0.027 | ispinesib -0.132 | bafetinib 0.01 | [5] 0.045 | nilotinib 0.036 | [6] -0.077 | dasatinib 0 | [7] -0.012 | [8] -0.014 | [9] -0.021 | tipifarnib 0.002 | mubritinib 0.065

SLC25A32 (UniProt Q9H2D1)
inactive: [1] -0.005 | crizotinib 0.036 | [2] 0.027 | [3] -0.02 | duvelisib 0.018 | gandotinib -0.057 | tozasertib -0.002 | [4] -0.024 | doramapimod 0.019 | ispinesib 0 | bafetinib -0.014 | [5] -0.005 | nilotinib -0.001 | [6] -0.002 | dasatinib 0.041 | [7] 0.01 | [8] 0.036 | [9] -0.011 | tipifarnib 0.009 | mubritinib 0.052

SLC12A4 (UniProt Q9UP95)
inactive: [1] -0.019 | crizotinib -0.07 | [2] -0.019 | [3] -0.018 | duvelisib 0.031 | gandotinib -0.035 | tozasertib -0.039 | [4] -0.057 | doramapimod 0.009 | ispinesib -0.215 | bafetinib -0.033 | [5] -0.041 | nilotinib -0.075 | [6] -0.044 | dasatinib 0.021 | [7] -0.051 | [8] 0.016 | [9] -0.022 | tipifarnib 0.032 | mubritinib 0.041

SLC2A1 (UniProt P11166)
inactive: [1] 0.057 | crizotinib 0.099 | [2] 0.007 | [3] -0.084 | duvelisib 0.077 | gandotinib -0.052 | tozasertib -0.008 | [4] -0.088 | doramapimod 0.011 | ispinesib 0.072 | bafetinib 0.019 | [5] -0.046 | nilotinib 0.035 | [6] -0.001 | dasatinib -0.002 | [7] 0.013 | [8] 0.025 | [9] -0.01 | tipifarnib 0.018 | mubritinib 0.033

SLC4A1AP (UniProt Q9BWU0)
inactive: [1] -0.009 | crizotinib 0.047 | [2] 0.048 | [3] 0.027 | duvelisib 0.075 | gandotinib -0.026 | tozasertib 0.063 | [4] 0.037 | doramapimod -0.019 | ispinesib 0.046 | bafetinib -0.007 | [5] 0.052 | nilotinib -0.003 | [6] -0.085 | dasatinib -0.038 | [7] -0.03 | [8] -0.035 | [9] 0.006 | tipifarnib 0.107 | mubritinib 0.029

SLC38A10 (UniProt Q9HBR0)
inactive: [1] 0.026 | crizotinib -0.012 | [2] 0.069 | [3] -0.034 | duvelisib -0.018 | gandotinib 0.04 | tozasertib -0.009 | [4] -0.074 | doramapimod 0.117 | ispinesib -0.032 | bafetinib -0.013 | [5] -0.03 | nilotinib -0.012 | [6] -0.011 | dasatinib 0.085 | [7] 0.023 | [8] 0 | [9] 0.007 | tipifarnib -0.04 | mubritinib 0.114

SLC39A7 (UniProt Q92504)
inactive: [1] 0.005 | crizotinib 0.011 | [2] 0.041 | [3] 0.014 | duvelisib 0.03 | gandotinib -0.074 | tozasertib -0.007 | [4] -0.128 | doramapimod -0.018 | ispinesib -0.153 | bafetinib -0.067 | [5] -0.024 | nilotinib 0.047 | [6] -0.009 | dasatinib 0.046 | [7] -0.015 | [8] -0.08 | [9] -0.026 | tipifarnib 0.029 | mubritinib 0.013

SLC26A6 (UniProt Q9BXS9)
inactive: [1] 0.041 | crizotinib 0.102 | [2] 0.117 | [3] -0.038 | duvelisib -0.01 | gandotinib -0.036 | tozasertib -0.019 | [4] 0.043 | doramapimod -0.017 | ispinesib -0.005 | bafetinib 0.023 | [5] -0.11 | nilotinib 0.082 | [6] -0.026 | dasatinib 0.067 | [7] -0.032 | [8] 0.065 | [9] -0.066 | tipifarnib 0.09 | mubritinib 0.024

SLC6A8 (UniProt P48029)
inactive: [1] 0.085 | crizotinib 0.06 | [2] 0.149 | [3] -0.06 | duvelisib 0.03 | gandotinib -0.147 | tozasertib 0.017 | [4] -0.016 | doramapimod -0.062 | ispinesib 0.049 | bafetinib 0.032 | [5] 0.079 | nilotinib 0.007 | [6] 0.073 | dasatinib 0.08 | [7] -0.008 | [8] 0.092 | [9] 0.043 | tipifarnib 0 | mubritinib -0.055

2 successive entries already listed, for reference:
SLC4A1AP (UniProt Q9BWU0)
inactive: [1] -0.009 | crizotinib 0.047 | [2] 0.048 | [3] 0.027 | duvelisib 0.075 | gandotinib -0.026 | tozasertib 0.063 | [4] 0.037 | doramapimod -0.019 | ispinesib 0.046 | bafetinib -0.007 | [5] 0.052 | nilotinib -0.003 | [6] -0.085 | dasatinib -0.038 | [7] -0.03 | [8] -0.035 | [9] 0.006 | tipifarnib 0.107 | mubritinib 0.029

SLC38A10 (UniProt Q9HBR0)
inactive: [1] 0.026 | crizotinib -0.012 | [2] 0.069 | [3] -0.034 | duvelisib -0.018 | gandotinib 0.04 | tozasertib -0.009 | [4] -0.074 | doramapimod 0.117 | ispinesib -0.032 | bafetinib -0.013 | [5] -0.03 | nilotinib -0.012 | [6] -0.011 | dasatinib 0.085 | [7] 0.023 | [8] 0 | [9] 0.007 | tipifarnib -0.04 | mubritinib 0.114

(further entries)

SLC43A1 (UniProt O75387)
inactive: [1] 0.033 | crizotinib 0.026 | [2] 0.205 | [3] -0.073 | duvelisib 0.097 | gandotinib 0.045 | tozasertib 0.037 | [4] -0.07 | doramapimod 0.013 | ispinesib 0.082 | bafetinib -0.006 | [5] -0.044 | nilotinib 0.009 | [6] 0.05 | dasatinib -0.047 | [7] 0.034 | [8] 0.064 | [9] 0.011 | tipifarnib 0 | mubritinib 0.049

SLC45A4 isoform 3 (UniProt Q5BKX6)
inactive: [1] 0.23 | crizotinib 0.037 | [2] -0.024 | [3] -0.024 | duvelisib -0.005 | gandotinib 0.011 | tozasertib -0.096 | [4] -0.06 | doramapimod -0.043 | ispinesib -0.045 | bafetinib 0.124 | [5] -0.052 | nilotinib 0.101 | [6] -0.031 | dasatinib 0.084 | [7] 0.026 | [8] 0.112 | [9] -0.05 | tipifarnib 0.114 | mubritinib 0.106

SLC39A6 (UniProt Q13433)
inactive: [1] 0.024 | crizotinib 0.176 | [2] 0.139 | [3] 0.003 | duvelisib 0.122 | gandotinib -0.062 | tozasertib -0.028 | [4] -0.005 | doramapimod 0.055 | ispinesib 0.097 | bafetinib 0.044 | [5] 0.146 | nilotinib 0.115 | [6] -0.01 | dasatinib -0.041 | [7] 0.013 | [8] 0.134 | [9] 0.001 | tipifarnib 0.024 | mubritinib 0.095

SLC25A6 (UniProt P12236)
inactive: [1] -0.007 | crizotinib 0.075 | [2] 0.037 | [3] -0.032 | duvelisib 0.042 | gandotinib -0.027 | tozasertib -0.016 | [4] 0.002 | doramapimod -0.036 | ispinesib -0.002 | bafetinib -0.033 | [5] -0.013 | nilotinib -0.029 | [6] 0.048 | dasatinib 0.045 | [7] -0.038 | [8] 0.004 | [9] 0.023 | tipifarnib -0.011 | mubritinib -0.011

SLC35A4 (UniProt L0R6Q1)
inactive: [1] -0.007 | crizotinib 0.161 | [2] 0.055 | [3] -0.134 | duvelisib 0.129 | gandotinib 0.14 | tozasertib 0.033 | [4] -0.096 | doramapimod -0.01 | ispinesib 0.08 | bafetinib -0.088 | [5] 0.136 | nilotinib 0.054 | [6] -0.021 | dasatinib 0.124 | [7] -0.058 | [8] 0.065 | [9] 0.234 | tipifarnib -0.119 | mubritinib 0.05

SLC1A4 (UniProt P43007)
inactive: [1] 0.011 | crizotinib 0.106 | [2] 0.061 | [3] -0.202 | duvelisib 0.063 | gandotinib -0.002 | tozasertib -0.055 | [4] -0.105 | doramapimod -0.012 | ispinesib 0.128 | bafetinib -0.01 | [5] -0.053 | nilotinib 0.029 | [6] 0.022 | dasatinib 0.067 | [7] -0.015 | [8] 0.099 | [9] -0.054 | tipifarnib -0.001 | mubritinib 0.07

SLC25A13 isoform 2 (UniProt Q9UJS0)
inactive: [1] 0.018 | crizotinib 0.031 | [2] 0.014 | [3] -0.071 | duvelisib -0.019 | gandotinib -0.032 | tozasertib -0.033 | [4] -0.003 | doramapimod 0.007 | ispinesib 0.038 | bafetinib -0.047 | [5] -0.023 | nilotinib -0.023 | [6] 0.019 | dasatinib 0.007 | [7] -0.006 | [8] 0.001 | [9] -0.018 | tipifarnib 0.036 | mubritinib 0.004
